These results are taken from doi:10.1101/2023.06.20.545791 (bioRxiv, 2023).

Amino acid sequences for entries named in this document (tags omitted). A change or cut given only in a name is not applied to a line headed by its entry. Residues count along the entry.
UniProt P01555: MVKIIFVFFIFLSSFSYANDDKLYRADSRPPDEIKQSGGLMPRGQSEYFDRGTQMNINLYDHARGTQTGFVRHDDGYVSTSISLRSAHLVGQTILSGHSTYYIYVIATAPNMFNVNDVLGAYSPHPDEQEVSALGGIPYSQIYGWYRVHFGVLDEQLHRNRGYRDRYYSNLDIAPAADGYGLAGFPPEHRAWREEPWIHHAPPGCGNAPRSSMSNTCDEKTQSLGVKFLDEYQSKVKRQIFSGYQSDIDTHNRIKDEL
UniProt P01556, residues 22-124: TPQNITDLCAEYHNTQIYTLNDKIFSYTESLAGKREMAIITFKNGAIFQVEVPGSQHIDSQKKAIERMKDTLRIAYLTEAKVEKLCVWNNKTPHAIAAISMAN
UniProt O75460, residues 24-443: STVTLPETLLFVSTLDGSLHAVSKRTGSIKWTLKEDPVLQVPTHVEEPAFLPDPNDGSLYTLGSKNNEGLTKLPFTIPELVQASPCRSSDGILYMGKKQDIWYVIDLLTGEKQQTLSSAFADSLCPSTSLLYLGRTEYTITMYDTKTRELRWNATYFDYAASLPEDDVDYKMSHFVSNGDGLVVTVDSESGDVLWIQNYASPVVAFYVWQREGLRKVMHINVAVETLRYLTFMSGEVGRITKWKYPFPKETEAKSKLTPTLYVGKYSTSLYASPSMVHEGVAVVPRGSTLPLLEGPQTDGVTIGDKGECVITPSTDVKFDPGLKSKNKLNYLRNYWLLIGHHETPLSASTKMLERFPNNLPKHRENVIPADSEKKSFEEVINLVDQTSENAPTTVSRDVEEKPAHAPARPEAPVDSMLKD

These are yes or no findings as the source states them, for the method shown.

The target in test [1] is CTxA1_(P13-Y30) control peptide (UniProt P01555). In words: fluorescence polarisation.
Test [2] has as its target CTxB labeled with Alexa Fluor 647 (UniProt P01556). In words: fluorescence polarisation. (Fluorescence polarisation rises when a labelled molecule tumbles more slowly, as on binding a larger partner.)

As for “IRE1α lumenal domain (IRE1αLD) (from UniProt O75460 24-443) (domain or fragment)”, the binding entry in test [1] is given as “no binding”. Consider “GST-IRE1αLD (S24-D443) (from UniProt O75460 24-443) (domain or fragment)”, for which, in test [2], the binding result was “no binding”.
